Measured values as given in the supplement of paper PMC10331698.
± gives the standard deviation of the averaged measurements. Small differences around the control level are noise.

Tests used:
Assay in all cases: level (log10 ratio to DMSO vehicle control); higher = higher biomarker level / cell amount than vehicle control
[1] = compound: CC(C)(C)C(=O)CC(=O)C(F)(F)C(F)(F)C(F)(F)F [(Heptafluorobutanoyl)pivaloylmethane]; details: 2200 nM; in DMSO
Method: (§1)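 BioMAP Diversity Plus panel of 12 human primary cell co-culture systems (3C, 4H, LPS, SAg, BT, BF4T, BE3C, CASM3C, HDF3CGF, KF3CT, MyoF, Mphg). Compounds were added 1 h before stimulation and left for 24 h (MyoF 48 h; BT 72 h for soluble read-outs or 6 d for IgG). Biomarkers were read by ELISA, cytotoxicity by SRB, PBMC viability and proliferation by Alamar Blue. Each well value was divided by the mean of 8 DMSO control wells on the same plate and log10 transformed; duplicate blinded samples were tested at 4 concentrations.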

[2] = compound: FC(F)(F)C(F)(F)C(F)(F)C(F)(F)C(F)(F)C(F)(F)CC1CO1 [3-(Perfluorohexyl)-1,2-epoxypropane]; details: 2200 nM; in DMSO
Method: as §1

[3] = compound: CCN(CCO)S(=O)(=O)C(F)(F)C(F)(F)C(F)(F)C(F)(F)C(F)(F)C(F)(F)C(F)(F)C(F)(F)F [N-Ethyl-N-(2-hydroxyethyl)perfluorooctanesulfonamide]; details: in DMSO
Method: as §1

Heptafluorobutyramide = compound: NC(=O)C(F)(F)C(F)(F)C(F)(F)F [Heptafluorobutyramide]; details: 2200 nM; in DMSO
Method: as §1

[4] = compound: CN(C(=O)C(F)(F)C(F)(F)C(F)(F)F)[Si](C)(C)C [N-Methyl-N-trimethylsilylheptafluorobutyramide]; details: 2200 nM; in DMSO
Method: as §1

[5] = compound: O=S(=O)(O)CCC(F)(F)C(F)(F)C(F)(F)C(F)(F)C(F)(F)C(F)(F)C(F)(F)C(F)(F)F [8:2 Fluorotelomer sulfonic acid]; details: in DMSO
Method: as §1

Perfluoroheptanoic acid = compound: O=C(O)C(F)(F)C(F)(F)C(F)(F)C(F)(F)C(F)(F)C(F)(F)F [Perfluoroheptanoic acid]; details: in DMSO
Method: as §1

[6] = compound: O=C(O)C(F)(F)C(F)(F)C(F)(F)OC(F)(F)F [Perfluoro(4-methoxybutanoic) acid]; details: 2200 nM; in DMSO
Method: as §1

[7] = compound: NCC(F)(F)C(F)(F)C(F)(F)C(F)(F)C(F)(F)C(F)(F)C(F)(F)F [1H,1H-Perfluorooctylamine]; details: 2200 nM; in DMSO
Method: as §1

[8] = compound: OCCC(F)(F)C(F)(F)C(F)(F)C(F)(F)C(F)(F)C(F)(F)F [6:2 Fluorotelomer alcohol]; details: 2200 nM; in DMSO
Method: as §1

[9] = compound: Cc1ccc(S(=O)(=O)OCC(F)(F)C(F)(F)C(F)(F)C(F)(F)C(F)(F)C(F)F)cc1 [1H,1H,7H-Perfluoroheptyl 4-methylbenzenesulfonate]; details: 2200 nM; in DMSO
Method: as §1

[10] = compound: O=C(O)C(F)(F)C(F)(F)C(F)(F)C(F)(F)C(F)(F)C(F)(F)C(F)(F)C(F)(F)C(F)(F)C(F)F [11-H-Perfluoroundecanoic acid]; details: 2200 nM; in DMSO
Method: as §1

Octafluoroadipic acid = compound: O=C(O)C(F)(F)C(F)(F)C(F)(F)C(F)(F)C(=O)O [Octafluoroadipic acid]; details: 2200 nM; in DMSO
Method: as §1

1-(Perfluorohexyl)octane = compound: CCCCCCCCC(F)(F)C(F)(F)C(F)(F)C(F)(F)C(F)(F)C(F)(F)F [1-(Perfluorohexyl)octane]; details: in DMSO
Method: as §1

Perfluoropentanoic acid = compound: O=C(O)C(F)(F)C(F)(F)C(F)(F)C(F)(F)F [Perfluoropentanoic acid]; details: in DMSO
Method: as §1

1H,1H-Heptafluorobutanol = compound: OCC(F)(F)C(F)(F)C(F)(F)F [1H,1H-Heptafluorobutanol]; details: 2200 nM; in DMSO
Method: as §1

Test System	level (log10) [1]	level (log10) [2]	level (log10) ([3]; 2200 nM)	level (log10) ([3]; 6700 nM)	level (log10) ([3]; 20000 nM)	level (log10) (Heptafluorobutyramide)	level (log10) [4]	level (log10) ([5]; 2200 nM)	level (log10) ([5]; 6700 nM)	level (log10) ([5]; 20000 nM)	level (log10) ([5]; 60000 nM)	level (log10) (Perfluoroheptanoic acid; 2200 nM)	level (log10) (Perfluoroheptanoic acid; 6700 nM)	level (log10) (Perfluoroheptanoic acid; 20000 nM)	level (log10) (Perfluoroheptanoic acid; 60000 nM)	level (log10) [6]	level (log10) [7]	level (log10) [8]	level (log10) [9]	level (log10) [10]	level (log10) (Octafluoroadipic acid)	level (log10) (1-(Perfluorohexyl)octane; 740 nM)	level (log10) (1-(Perfluorohexyl)octane; 2200 nM)	level (log10) (Perfluoropentanoic acid; 2200 nM)	level (log10) (Perfluoropentanoic acid; 6700 nM)	level (log10) (Perfluoropentanoic acid; 20000 nM)	level (log10) (Perfluoropentanoic acid; 60000 nM)	level (log10) (1H,1H-Heptafluorobutanol)
HDF3CGF:CXCL10/IP-10	0.016 ± 0.017	0.018 ± 0.059	-0.006 ± 0.031	-0.0725 ± 0.05	-0.206 ± 0.0057	-0.008 ± 0.011	0.0295 ± 0.0092	-0.01 ± 0.0014	-0.014 ± 0.0014	-0.0315 ± 0.0092	-0.06 ± 0.016	0.0065 ± 0.047	-0.0295 ± 0.046	-0.015 ± 0.016	-0.0295 ± 0.0092	-0.006 ± 0.025	-0.015 ± 0.072	-0.012 ± 0.0071	-0.0385 ± 0.00071	-0.073 ± 0.047	-0.0085 ± 0.0064	-0.0305 ± 0.023	-0.0115 ± 0.033	0.0065 ± 0.036	0 ± 0.014	-0.011 ± 0.0028	0.006 ± 0.0057	0.0035 ± 0.033
HDF3CGF:CXCL11/I-TAC	-0.0075 ± 0.013	0.009 ± 0.0028	0.0245 ± 0.016	-0.0535 ± 0.046	-0.172 ± 0.041	-0.0055 ± 0.012	-0.0065 ± 0.035	-0.0075 ± 0.0035	-0.053 ± 0.027	-0.0285 ± 0.03	-0.0865 ± 0.067	0.0025 ± 0.016	-0.0165 ± 0.013	0.003 ± 0.011	0.01 ± 0.016	-0.03	-0.041 ± 0.013	0.003 ± 0.011	-0.0215 ± 0.025	-0.108 ± 0.064	-0.0075 ± 0.0021	-0.024 ± 0.028	-0.022 ± 0.013	-0.006 ± 0.0099	-0.0085 ± 0.012	-0.0065 ± 0.015	0.005 ± 0.054	-0.0015 ± 0.037
HDF3CGF:Collagen I	0.0115 ± 0.03	0.017 ± 0.075	0.0355 ± 0.13	0.0835 ± 0.03	0.112 ± 0.0092	0.0415 ± 0.022	0.0025 ± 0.056	0.021 ± 0.037	0.007 ± 0.038	0.0195 ± 0.049	-0.0455 ± 0.17	0.0155 ± 0.087	-0.036 ± 0.045	-0.009 ± 0.024	0.0395 ± 0.061	0.05 ± 0.069	0.0085 ± 0.12	0.031 ± 0.041	0.0415 ± 0.0078	-0.0205 ± 0.066	0.035 ± 0.075	-0.0135 ± 0.077	-0.0585 ± 0.0092	-0.025 ± 0.042	-0.0295 ± 0.012	-0.01 ± 0.0014	0.003 ± 0.064	0.0085 ± 0.03
HDF3CGF:Collagen III	-0.0605 ± 0.16	0.001 ± 0.014	0.002 ± 0.069	-0.0465 ± 0.05	-0.142 ± 0.044	-0.0285 ± 0.032	0.005 ± 0.028	0.012 ± 0.035	0.05 ± 0.014	0.0975 ± 0.0092	0.0145 ± 0.12	-0.026 ± 0.057	-0.021 ± 0.011	-0.0385 ± 0.033	-0.013 ± 0.016	-0.005 ± 0.025	-0.01 ± 0.033	0.0175 ± 0.021	-0.0275 ± 0.043	-0.061 ± 0.054	0.005 ± 0.02	-0.02 ± 0.048	0.005 ± 0.0057	0.0175 ± 0.063	0.005 ± 0.014	0.01 ± 0.017	0.033 ± 0.034	-0.0245 ± 0.093
HDF3CGF:EGFR	-0.05 ± 0.095	-0.0065 ± 0.0078	-0.028 ± 0.0085	-0.102 ± 0.024	-0.115 ± 0.0021	-0.0045 ± 0.049	0.0105 ± 0.022	-0.006 ± 0.045	-0.011 ± 0.033	-0.0455 ± 0.03	-0.101 ± 0.026	0.0035 ± 0.0021	-0.008 ± 0.016	0.004 ± 0.0028	0.01 ± 0.023	-0.007 ± 0.078	-0.058 ± 0.04	0.018 ± 0.02	0.024 ± 0.027	0.0195 ± 0.042	0.029 ± 0.033	0.005 ± 0.025	0.004 ± 0.013	0.0275 ± 0.005	0.008 ± 0.02	-0.0265 ± 0.013	-0.008 ± 0.027	-0.048 ± 0.028
HDF3CGF:M-CSF	0.017 ± 0.045	-0.0105 ± 0.018	-0.009 ± 0.017	-0.101 ± 0.013	-0.27 ± 0.0071	0.0045 ± 0.013	0.006 ± 0.02	-0.009 ± 0.04	-0.0035 ± 0.056	-0.014 ± 0.038	-0.0685 ± 0.04	-0.009 ± 0.016	-0.009 ± 0.0099	0.0025 ± 0.015	0.01 ± 0.0014	0.0155 ± 0.037	-0.0775 ± 0.044	0.0045 ± 0.0035	-0.0055 ± 0.088	-0.0175 ± 0.054	-0.0035 ± 0.0035	0.001 ± 0.027	-0.0125 ± 0.044	-0.0095 ± 0.025	0.0025 ± 0.019	-0.018 ± 0.0099	0.004 ± 0.0028	0.0235 ± 0.0078
HDF3CGF:MMP-1	-0.015 ± 0.024	0.0005 ± 0.005	0.0455 ± 0.016	0.043 ± 0.013	0.0065 ± 0.026	-0.0135 ± 0.0078	-0.01 ± 0.0057	0.002 ± 0.018	0.0205 ± 0.012	-0.017 ± 0.028	-0.0835 ± 0.036	0.0025 ± 0.00071	-0.0105 ± 0.012	0.0025 ± 0.00071	0.0065 ± 0.005	-0.005 ± 0.0014	0 ± 0.0085	0.0005 ± 0.011	-0.0085 ± 0.032	-0.0025 ± 0.056	-0.011 ± 0.017	0.003 ± 0.027	-0.02 ± 0.0071	-0.007 ± 0.02	-0.0165 ± 0.013	-0.0215 ± 0.0021	-0.0215 ± 0.011	-0.0255 ± 0.0035
HDF3CGF:PAI-I	0.027 ± 0.0028	-0.014 ± 0.0057	-0.0005 ± 0.066	-0.0695 ± 0.061	-0.211 ± 0.08	-0.001 ± 0.037	0.006 ± 0.03	0.0265 ± 0.04	0.018 ± 0.034	-0.002 ± 0.021	0.0015 ± 0.0078	-0.0095 ± 0.016	-0.017 ± 0.0028	-0.0215 ± 0.0035	-0.008 ± 0.041	0.003 ± 0.03	-0.0075 ± 0.0078	0.001 ± 0.0028	0.0095 ± 0.036	0.0145 ± 0.019	0.0145 ± 0.046	0.012 ± 0.041	-0.0155 ± 0.03	-0.001 ± 0.0071	-0.0055 ± 0.026	-0.015 ± 0.013	0.007 ± 0.0014	-0.0005 ± 0.037

Whole records from above. Values in the order: level (log10) [1]	level (log10) [2]	level (log10) ([3]; 2200 nM)	level (log10) ([3]; 6700 nM)	level (log10) ([3]; 20000 nM)	level (log10) (Heptafluorobutyramide)	level (log10) [4]	level (log10) ([5]; 2200 nM)	level (log10) ([5]; 6700 nM)	level (log10) ([5]; 20000 nM)	level (log10) ([5]; 60000 nM)	level (log10) (Perfluoroheptanoic acid; 2200 nM)	level (log10) (Perfluoroheptanoic acid; 6700 nM)	level (log10) (Perfluoroheptanoic acid; 20000 nM)	level (log10) (Perfluoroheptanoic acid; 60000 nM)	level (log10) [6]	level (log10) [7]	level (log10) [8]	level (log10) [9]	level (log10) [10]	level (log10) (Octafluoroadipic acid)	level (log10) (1-(Perfluorohexyl)octane; 740 nM)	level (log10) (1-(Perfluorohexyl)octane; 2200 nM)	level (log10) (Perfluoropentanoic acid; 2200 nM)	level (log10) (Perfluoropentanoic acid; 6700 nM)	level (log10) (Perfluoropentanoic acid; 20000 nM)	level (log10) (Perfluoropentanoic acid; 60000 nM)	level (log10) (1H,1H-Heptafluorobutanol)
HDF3CGF:CXCL10/IP-10 as listed: 0.016 ± 0.017	0.018 ± 0.059	-0.006 ± 0.031	-0.0725 ± 0.05	-0.206 ± 0.0057	-0.008 ± 0.011	0.0295 ± 0.0092	-0.01 ± 0.0014	-0.014 ± 0.0014	-0.0315 ± 0.0092	-0.06 ± 0.016	0.0065 ± 0.047	-0.0295 ± 0.046	-0.015 ± 0.016	-0.0295 ± 0.0092	-0.006 ± 0.025	-0.015 ± 0.072	-0.012 ± 0.0071	-0.0385 ± 0.00071	-0.073 ± 0.047	-0.0085 ± 0.0064	-0.0305 ± 0.023	-0.0115 ± 0.033	0.0065 ± 0.036	0 ± 0.014	-0.011 ± 0.0028	0.006 ± 0.0057	0.0035 ± 0.033
HDF3CGF:EGFR as listed: -0.05 ± 0.095	-0.0065 ± 0.0078	-0.028 ± 0.0085	-0.102 ± 0.024	-0.115 ± 0.0021	-0.0045 ± 0.049	0.0105 ± 0.022	-0.006 ± 0.045	-0.011 ± 0.033	-0.0455 ± 0.03	-0.101 ± 0.026	0.0035 ± 0.0021	-0.008 ± 0.016	0.004 ± 0.0028	0.01 ± 0.023	-0.007 ± 0.078	-0.058 ± 0.04	0.018 ± 0.02	0.024 ± 0.027	0.0195 ± 0.042	0.029 ± 0.033	0.005 ± 0.025	0.004 ± 0.013	0.0275 ± 0.005	0.008 ± 0.02	-0.0265 ± 0.013	-0.008 ± 0.027	-0.048 ± 0.028
